## Screening data, single-dose tests

The chains behind the UniProt entries cited, without tags or fusion partners. Residues count along the entry.
UniProt I6X8D2, whole entry: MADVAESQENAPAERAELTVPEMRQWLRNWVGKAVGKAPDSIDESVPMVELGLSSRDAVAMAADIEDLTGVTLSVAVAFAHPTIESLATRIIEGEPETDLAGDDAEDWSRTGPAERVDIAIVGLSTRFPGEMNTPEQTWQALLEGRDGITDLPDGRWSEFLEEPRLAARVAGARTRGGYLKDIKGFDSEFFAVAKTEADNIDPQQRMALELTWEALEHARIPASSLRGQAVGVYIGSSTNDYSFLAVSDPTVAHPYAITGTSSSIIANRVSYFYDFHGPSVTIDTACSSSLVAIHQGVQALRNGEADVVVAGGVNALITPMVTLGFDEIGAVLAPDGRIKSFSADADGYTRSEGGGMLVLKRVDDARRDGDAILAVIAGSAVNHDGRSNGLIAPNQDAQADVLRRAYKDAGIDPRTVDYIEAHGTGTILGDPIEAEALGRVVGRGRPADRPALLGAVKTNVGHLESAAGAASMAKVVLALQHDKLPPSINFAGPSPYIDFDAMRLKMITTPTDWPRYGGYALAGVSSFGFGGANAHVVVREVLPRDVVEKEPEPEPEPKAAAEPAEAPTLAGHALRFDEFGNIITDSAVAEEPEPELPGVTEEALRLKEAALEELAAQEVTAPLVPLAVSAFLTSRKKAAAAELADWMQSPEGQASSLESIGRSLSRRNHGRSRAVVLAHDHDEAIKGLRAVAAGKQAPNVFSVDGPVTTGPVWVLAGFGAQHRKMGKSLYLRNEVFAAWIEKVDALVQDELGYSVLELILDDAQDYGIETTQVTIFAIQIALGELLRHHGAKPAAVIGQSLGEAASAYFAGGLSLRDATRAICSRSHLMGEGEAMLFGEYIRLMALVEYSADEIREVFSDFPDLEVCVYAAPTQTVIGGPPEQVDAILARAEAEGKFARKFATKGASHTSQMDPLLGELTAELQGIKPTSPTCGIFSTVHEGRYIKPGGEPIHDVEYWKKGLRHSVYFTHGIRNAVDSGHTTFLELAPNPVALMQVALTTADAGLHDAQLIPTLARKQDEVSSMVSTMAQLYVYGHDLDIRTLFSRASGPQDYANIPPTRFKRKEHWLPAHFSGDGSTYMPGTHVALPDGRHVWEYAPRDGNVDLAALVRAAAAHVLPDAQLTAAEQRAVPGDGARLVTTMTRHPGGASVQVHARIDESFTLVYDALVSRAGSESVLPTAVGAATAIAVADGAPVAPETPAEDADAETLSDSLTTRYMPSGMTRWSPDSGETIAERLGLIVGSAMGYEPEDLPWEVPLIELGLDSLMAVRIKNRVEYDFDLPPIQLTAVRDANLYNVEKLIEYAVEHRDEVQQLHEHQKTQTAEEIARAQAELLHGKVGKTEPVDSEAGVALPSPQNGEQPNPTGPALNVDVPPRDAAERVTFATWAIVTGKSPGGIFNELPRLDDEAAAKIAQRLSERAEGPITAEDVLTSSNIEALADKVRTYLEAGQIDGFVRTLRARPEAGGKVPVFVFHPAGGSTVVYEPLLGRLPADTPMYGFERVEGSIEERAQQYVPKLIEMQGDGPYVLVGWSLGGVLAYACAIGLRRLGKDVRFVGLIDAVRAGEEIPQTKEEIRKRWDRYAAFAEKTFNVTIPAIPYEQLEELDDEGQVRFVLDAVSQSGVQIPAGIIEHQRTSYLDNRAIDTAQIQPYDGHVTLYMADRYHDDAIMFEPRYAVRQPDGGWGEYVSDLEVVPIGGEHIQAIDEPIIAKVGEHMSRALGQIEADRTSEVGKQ
UniProt A4I591, 1-473: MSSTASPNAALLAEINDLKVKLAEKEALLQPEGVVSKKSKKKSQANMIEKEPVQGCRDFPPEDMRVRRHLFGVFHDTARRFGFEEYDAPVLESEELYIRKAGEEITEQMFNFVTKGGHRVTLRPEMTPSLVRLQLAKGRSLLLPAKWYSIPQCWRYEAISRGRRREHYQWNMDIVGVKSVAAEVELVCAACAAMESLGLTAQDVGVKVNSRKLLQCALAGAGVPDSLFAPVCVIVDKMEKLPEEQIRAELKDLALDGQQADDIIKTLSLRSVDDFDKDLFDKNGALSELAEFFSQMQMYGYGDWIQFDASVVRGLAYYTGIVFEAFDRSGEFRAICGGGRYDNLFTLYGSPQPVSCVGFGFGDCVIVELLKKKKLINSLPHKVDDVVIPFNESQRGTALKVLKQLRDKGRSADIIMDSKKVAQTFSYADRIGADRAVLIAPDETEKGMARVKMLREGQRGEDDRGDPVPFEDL
UniProt P9WPC5, whole entry: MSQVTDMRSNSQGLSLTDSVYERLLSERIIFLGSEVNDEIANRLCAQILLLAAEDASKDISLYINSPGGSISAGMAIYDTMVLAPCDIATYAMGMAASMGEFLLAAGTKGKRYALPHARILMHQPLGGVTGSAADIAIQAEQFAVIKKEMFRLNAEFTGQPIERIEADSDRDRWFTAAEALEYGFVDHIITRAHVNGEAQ
UniProt P9WPC3, whole entry partner: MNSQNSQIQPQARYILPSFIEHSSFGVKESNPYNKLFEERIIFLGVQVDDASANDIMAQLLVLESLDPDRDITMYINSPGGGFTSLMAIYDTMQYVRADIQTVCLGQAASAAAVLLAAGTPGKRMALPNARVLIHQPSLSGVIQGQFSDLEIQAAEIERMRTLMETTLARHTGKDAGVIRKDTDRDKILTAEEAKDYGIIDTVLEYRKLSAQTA
UniProt P9WNZ1, whole entry: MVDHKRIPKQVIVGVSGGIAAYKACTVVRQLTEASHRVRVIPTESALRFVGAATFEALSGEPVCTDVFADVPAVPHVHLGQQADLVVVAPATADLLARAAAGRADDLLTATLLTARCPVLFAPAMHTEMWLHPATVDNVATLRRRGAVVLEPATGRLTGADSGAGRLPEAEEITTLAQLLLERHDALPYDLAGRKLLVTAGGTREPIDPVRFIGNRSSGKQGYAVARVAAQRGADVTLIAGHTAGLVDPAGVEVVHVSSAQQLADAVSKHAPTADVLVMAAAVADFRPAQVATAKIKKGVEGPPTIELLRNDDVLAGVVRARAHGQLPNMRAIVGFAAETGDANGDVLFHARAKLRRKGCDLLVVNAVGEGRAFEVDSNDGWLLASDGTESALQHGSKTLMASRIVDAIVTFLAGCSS

Pks13 thioesterase: 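Enzyme assay of the thioesterase domain of polyketide synthase 13; the read-out is not stated. Target: Polyketide synthase Pks13, Mycobacterium tuberculosis (UniProt I6X8D2). Concentration: 30 µM. Higher reads as stronger inhibition (inferred from which compounds were picked for retests). About 67,000 compounds were tested under these conditions; 0.46% (about 300) showed 50% or more at least once.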
LiHisRS: 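Histidine-tRNA ligase, Leishmania infantum (UniProt A4I591). Enzyme assay of histidyl-tRNA synthetase; the read-out is not stated. Compounds at 30 µM. Higher reads as stronger inhibition (inferred: compounds with an IC50 in retests scored well above the rest). The assay is labelled LdHisRS but filed under L. infantum. Size under these conditions: about 69,000 compounds, about 410 of them at 50% or above in at least one test.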
Leishmania in macrophages: 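Cell assay of Leishmania donovani living inside macrophages; the read-out is not stated. Concentration: 30 µM. Direction is inferred from retests: higher values go with stronger inhibition. Size under these conditions: about 69,000 compounds, about 1,000 of them at 50% or above in at least one test.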
ClpP1P2: 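Protease assay of ClpP1P2, read by the AMC dye that it sets free. Target: ClpP1P2, Mycobacterium tuberculosis (UniProt P9WPC5 and UniProt P9WPC3). Compounds at 50 µM. Higher reads as stronger inhibition, judged from the few compounds that gave an IC50. Most other retested compounds had strongly negative values. Size under these conditions: about 69,000 compounds, about 10 of them at 50% or above in at least one test.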
Toxoplasma: 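Assay of Toxoplasma gondii numbers, read through their beta-galactosidase reporter with a colour substrate. Concentration: 10 µM. Higher reads as fewer parasites (inferred from which compounds were picked for retests). Of about 67,000 compounds tested this way, about 260 (0.38%) reached 50% or more in at least one test.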
CoaBC: 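Coenzyme A biosynthesis protein CoaBC, Mycobacterium tuberculosis (UniProt P9WNZ1). Enzyme assay of CoaBC with a phosphate dye (Biomol Green) read at 650 nm. Concentration: 30 µM. Higher reads as stronger inhibition, judged from the few compounds that gave an IC50. Most strong results did not repeat in a second test. Of about 67,000 compounds tested this way, about 40 (0.06%) reached 50% or more in at least one test.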

The filed quantity is “Percent Effect” (%).
How 0% and 100% were set is not recorded. Most values in the screen are low, and negative values occur.
Compounds were drawn at random from those tested, without regard to their results.
Two or more numbers in one place are separate tests of the same structure; such repeats can differ widely.

For CCN(CC(=O)NC(C)(C)C)Cc1cccc2c1OCCO2 the result was Pks13 thioesterase: -36.47%; LiHisRS: 7.752%; Leishmania in macrophages: 21.13%; ClpP1P2: -10.3%; Toxoplasma: 7.067%; CoaBC: 5.528%. With Cc1cc(C)cc(N2CC(c3nnc(N)s3)CC2=O)c1 (configuration not stated) the screen gave Pks13 thioesterase: -9.727%; LiHisRS: 18.52%; Leishmania in macrophages: 6.436%; ClpP1P2: -18.75%; Toxoplasma: -6.316%; CoaBC: 3.571%. Cc1cc(CN2C[C@@H](C)[C@@]3(CCN(CC(=O)N(C)C)C3=O)C2)oc1C gave Pks13 thioesterase: -19.28%; LiHisRS: 17.24%; ClpP1P2: 6.381%. Cc1cc(C(=O)NCc2ccccc2CN(C)Cc2ccco2)on1 read Pks13 thioesterase: 11.24%; LiHisRS: -9.589%; Leishmania in macrophages: 2.842%; ClpP1P2: -10.87%; Toxoplasma: 3.161%; CoaBC: -15.06%. With CCC(CC)c1cc(CNC(=O)N2CCCN(C(C)=O)CC2)on1 the screen gave Pks13 thioesterase: -36.51%; LiHisRS: 9.836%; Leishmania in macrophages: -2.848%; ClpP1P2: -3.112%; Toxoplasma: -8.174%; CoaBC: 4.721%.

With Cc1cc(C)c(CNC(=O)NC2CCOCC2)c(=O)[nH]1 the screen gave Pks13 thioesterase: -9.187%; LiHisRS: 11.71%; Leishmania in macrophages: 0.6641%; ClpP1P2: 3.935%; Toxoplasma: 9.091%; CoaBC: 3.113%. With CC(C)Oc1cccc2c1c(NC(=O)CN(C)C)nn2CC(F)(F)F the screen gave Pks13 thioesterase: -53.52%; LiHisRS: 18.18%; Leishmania in macrophages: -72.19%; ClpP1P2: -5.466%; Toxoplasma: -6.639%; CoaBC: 1.022%. Result for O=C(O)c1cnc(N2CC[C@H](N3CCOCC3)[C@H](CCCO)C2)c(Cl)c1 was Pks13 thioesterase: -37.06%; LiHisRS: 5.208%; Leishmania in macrophages: 18.91%; ClpP1P2: 2.134%; Toxoplasma: 2.142%; CoaBC: 2.679%. c1cc(CN2CCCn3cnc(COCC4CC4)c3C2)co1 gave Pks13 thioesterase: 0.6747%; LiHisRS: 15%; ClpP1P2: -5.766%; CoaBC: 2.843%. Cc1noc(C2CCC3(CCN(C(=O)c4ccncn4)CC3)O2)n1 (configuration not stated) gave Pks13 thioesterase: -17.22%; LiHisRS: 16.67%; Leishmania in macrophages: -13.33%; ClpP1P2: -10.07%; Toxoplasma: 17.23%; CoaBC: 40.49% and 2.577%.

CCOc1ccccc1C(=O)NCCC(O)c1ccoc1 (configuration not stated) read Pks13 thioesterase: -12.72%; LiHisRS: 20.78%; Leishmania in macrophages: -46.38%; ClpP1P2: -11.81%; Toxoplasma: 7.018%; CoaBC: -3.831%. For CCOc1cccc(CNCc2ccc(NC(=O)NC(C)C)cc2)c1 the result was Pks13 thioesterase: -15.1%; LiHisRS: 13.68%; Leishmania in macrophages: 6.158%; ClpP1P2: -10.17%; Toxoplasma: 5.91%; CoaBC: -7.239%. With CCN1CCC2(CN(C(C)=O)CC23CCN(CC2CC2)CC3)C1=O (configuration not stated) the screen gave Pks13 thioesterase: -5.034%; LiHisRS: 9.709%; ClpP1P2: -16.39%; CoaBC: 6.87%. O=C(NCC1CC1)[C@H]1C[C@@H]2CN(C(=O)NCC3CCCCC3)C[C@H]1O2 gave Pks13 thioesterase: -20.42%; LiHisRS: 10.34%; ClpP1P2: 8.75%. Cc1cc(C(=O)NCCC(=O)N2CCCc3ccccc32)no1 read Pks13 thioesterase: -49.27%; LiHisRS: 10.36%; Leishmania in macrophages: 4.053%; ClpP1P2: 0.9976%; Toxoplasma: 2.065%; CoaBC: 4.968%.

For Cc1cn[nH]c1C1COCCN1Cc1cscn1 (configuration not stated) the result was Pks13 thioesterase: 11.73%; LiHisRS: 14.08%; Leishmania in macrophages: 13.28%; ClpP1P2: -1.761%; Toxoplasma: -2.251%; CoaBC: 5.672%. Result for Cc1nn(CCNC(C)Cn2cncn2)c(C)c1Cl (configuration not stated) was Pks13 thioesterase: 4.784%; LiHisRS: 6.78%; Leishmania in macrophages: 24.33%; ClpP1P2: -13.5%; Toxoplasma: -11.13%; CoaBC: -1.38%.

Some entries from above, unchanged:

- Cc1cc(C(=O)NCc2ccccc2CN(C)Cc2ccco2)on1 | Pks13 thioesterase: 11.24%; LiHisRS: -9.589%; Leishmania in macrophages: 2.842%; ClpP1P2: -10.87%; Toxoplasma: 3.161%; CoaBC: -15.06%
- O=C(NCC1CC1)[C@H]1C[C@@H]2CN(C(=O)NCC3CCCCC3)C[C@H]1O2 | Pks13 thioesterase: -20.42%; LiHisRS: 10.34%; ClpP1P2: 8.75%

The values are deposited in ChEMBL (CHEMBL3988442, “University of Dundee, Small-Polar-MMV Screening Library” (2021)).